Source: PubChem BioAssay AID504467 (National Center for Advancing Translational Sciences (NCATS), 2011)
Screen size: about 330,000 compounds; about 7,700 (2.3%) were called active. The inconclusive results got no clear call from the source; some entries with a clear call stand among them for comparison. The call rests on the fitted dose curve; in most records, active means well fitted inhibition curve with a large enough effect; inconclusive means small, poorly fitted or top-dose-only effect, or effect the other way; inactive means flat fitted curve, though single readings scatter. Potencies beside an inconclusive call are fits to weak or partial responses and may not hold up.

assay: qHTS screen for small molecules that inhibit ELG1-dependent DNA repair in human embryonic kidney (HEK293T) cells expressing luciferase-tagged ELG1; conditions: HEK293T ELG1-luciferase reporter, luminescence, 16 h, DNA damage induced by 5-fluorouridine; series mostly up to 46.1 µM; further: nearly all actives have a fitted effect of over 55% in size
Outline: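 Luminescence from the luciferase reporter, measured 30 min after ONE-Glo reagent at room temperature, was the read-out. Beforehand, 2,000 cells per well were exposed for 16 hr at 37 °C to 5-fluorouridine together with compound or vehicle.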
Potency means the concentration at half of the fitted maximal effect.

Q: Which Potency does the source give for O=c1c2ccccc2nnn1CSc1nnc2sc3ccccc3n12 here?
A: The Potency was inconclusive: 1.3 µM [activator, partial curve].

Q: With O=C(NCC1CCCO1)c1cc(-c2ccncc2)nc2ccccc12 (stereo not given) as the compound, how does the Potency read?
A: Its Potency is “inactive”.

Q: Which Potency does the source give for COc1ccc(-c2nc3ccc([N+](=O)[O-])cc3[nH]2)cc1 here?
A: The Potency was inconclusive: 0.92 µM [activator, partial curve].

Q: With Cc1cc(C(=O)CSc2ncccn2)c(C)n1Cc1ccco1 as the compound, how does the Potency read?
A: Its Potency is inconclusive: 2.06 µM [activator, full curve].

Q: With Cc1cc(C(=O)CSc2nnc(N)s2)c(C)n1CCc1ccc(Cl)cc1 as the compound, how does the Potency read?
A: Its Potency is inconclusive: 25.9 µM [inhibitor, single point].

Q: With CC12CC(NC(=O)N1c1cccc(C(=O)NCc3ccccc3)c1)c1ccccc1O2 (stereo not given) as the compound, how does the Potency read?
A: The Potency was inconclusive: 23.1 µM [inhibitor, partial curve, poor fit].

Q: Which Potency does the source give for COCCNC(=O)c1cc2c(=O)n(C)c3ccccc3c2n1C here?
A: The Potency was “inactive”.

Q: Which Potency does the source give for Cc1ccc(-c2cc(C(=O)OCC(=O)Nc3ncc(C(F)(F)F)cc3Cl)c3ccccc3n2)cc1 here?
A: Its Potency is inconclusive: 13 µM [activator, partial curve].

Q: Which Potency does the source give for Cc1ccc(NC(=S)N2CCC(NC(=O)c3ccc(C)cc3)CC2)cc1 here?
A: The Potency was inconclusive: 10.3 µM [inhibitor, partial curve, poor fit].

Q: Which Potency does the source give for Cc1ccc(-n2c(Cn3c(C)nc4ccccc43)n[nH]c2=S)cc1 here?
A: The Potency was “inactive”.

Q: With CCOCCCn1c(C)nc2c(c1=O)c1nc3ccccc3nc1n2CCC1=CCCCC1 as the compound, how does the Potency read?
A: Its Potency is inconclusive: 35.5 µM [inhibitor, single point].

Q: Which Potency does the source give for CCn1c(C)cc(/C=C2\NC(=O)N(Cc3ccccc3)C2=O)c1C here?
A: Its Potency is inconclusive: 23.1 µM [inhibitor, partial curve, poor fit].

Q: Which Potency does the source give for CCN(CC)CCCNC(=S)N1CCN(c2nc(-c3ccccc3)cs2)CC1 here?
A: The Potency was “inactive”.

Q: With Cc1ccc(S(=O)(=O)Nc2cc(=O)[nH]c(SCC(=O)Nc3ccccc3Cl)n2)cc1 as the compound, how does the Potency read?
A: The Potency was inconclusive: 29.1 µM [inhibitor, single point].

Q: For CC(C)CNS(=O)(=O)c1cc(C(=O)O)c(Cl)cc1Cl, which Potency is on record?
A: The Potency was inconclusive: 11.6 µM [activator, partial curve, poor fit].

Q: Which Potency does the source give for CCOC(=O)c1c(-c2ccccc2)csc1NC(=O)CSc1nnc(C)s1 here?
A: Its Potency is inconclusive: 20.6 µM [inhibitor, single point].

Q: For C/C(CC(=O)Nc1ccc(N(C)C)cc1)=N\NC(=O)c1ccccc1O, which Potency is on record?
A: Its Potency is inconclusive: 29.1 µM [inhibitor, single point].

Q: Which Potency does the source give for O=C(CNc1ccccc1)NNC1=NCCC1 here?
A: The Potency was “inactive”.

Q: For Cc1ccccc1CN1CCN(CC(=O)NCCCN2CCN(c3ccc(F)cc3)CC2)C1=O, which Potency is on record?
A: The Potency was inconclusive: 5.8 µM [inhibitor, partial curve].

Q: For CN(CC(=O)Nc1ccc(F)cc1)C(=O)c1cc2c(s1)CCCCC2, which Potency is on record?
A: Its Potency is “inactive”.

Q: With Cc1nn(-c2ccccc2)c(Cl)c1C(=O)NCC1CCCO1 (stereo not given) as the compound, how does the Potency read?
A: The Potency was “inactive”.

Q: For CCOc1ccc(NCc2cccn2-c2nnc(N3CCC(C(=O)NCCCN4CCCCC4CC)CC3)s2)cc1 (stereo not given), which Potency is on record?
A: Its Potency is “inactive”.

Q: Which Potency does the source give for Cc1c(NC(=S)NC(=O)c2ccco2)cccc1-c1nc2ncccc2o1 here?
A: The Potency was inconclusive: 29.1 µM [inhibitor, single point].

Q: With Cn1c(SCC(=O)N/N=C/c2cccnc2)nnc1-c1ccccc1 as the compound, how does the Potency read?
A: The Potency was “inactive”.

Q: With COc1ccccc1N1CCN(CCCCNC(=O)c2ccc3ccccc3c2)CC1 as the compound, how does the Potency read?
A: Its Potency is “inactive”.

Q: With Cc1cc(Cl)c(OCCCCNC(C)(C)C)c(Br)c1 as the compound, how does the Potency read?
A: The Potency was “inactive”.

Q: For COCCn1c(SCC(=O)Nc2ccccc2F)nnc1-c1ccoc1C, which Potency is on record?
A: Its Potency is “inactive”.

Q: With Cc1onc(-c2c(F)cccc2Cl)c1C(=O)Nc1ccc(S(=O)(=O)N2CCOCC2)cc1 as the compound, how does the Potency read?
A: Its Potency is “inactive”.

Q: Which Potency does the source give for CCCS(=O)(=O)N1CCN(Cc2ccc3c(c2)c2ccccc2n3CC)CC1 here?
A: The Potency was inconclusive: 32.6 µM [inhibitor, single point].

Q: Which Potency does the source give for CCc1cc(-c2n[nH]c(C)c2-c2nc3ccccc3n2C)c(O)cc1O here?
A: Its Potency is inconclusive: 23.1 µM [inhibitor, single point].

Q: Which Potency does the source give for Nc1nc(N)nc(-c2cccc(Cl)c2)n1 here?
A: The Potency was inconclusive: 14.6 µM [activator, partial curve].

Q: Which Potency does the source give for O=c1[nH]c(/C=C/c2ccccc2Cl)nc2ccccc12 here?
A: The Potency was inconclusive: 2.59 µM [activator, partial curve].

Q: With Cc1cc(C)c2c(CN3CCCCC3)cc(=O)oc2c1 as the compound, how does the Potency read?
A: The Potency was “inactive”.

Q: Which Potency does the source give for N#Cc1ccc(CSc2nnc(NC(=O)CCc3nc4ccccc4c(=O)[nH]3)s2)cc1 here?
A: The Potency was “inactive”.

Q: Which Potency does the source give for C=CC[C@H](CC(=O)N(CCO)Cc1ccccc1)C(=O)N[C@H](COC(=O)[C@@H](CC=C)Cc1ccc(F)cc1)Cc1c[nH]c2ccccc12 here?
A: The Potency was active: 23.1 µM.

Q: With C=C(C)CSc1nc2nc(C)c(Br)cc2[nH]1 as the compound, how does the Potency read?
A: Its Potency is inconclusive: 20.6 µM [activator, single point].

Q: With COc1cccc(NC(=O)NNC(=O)CCc2ccc(O)c(O)c2)c1 as the compound, how does the Potency read?
A: Its Potency is inconclusive: 25.9 µM [activator, partial curve, poor fit].

Q: With CCCCNC1=C(Br)C(=O)CC(C)(C)C1 as the compound, how does the Potency read?
A: The Potency was inconclusive: 29.1 µM [activator, single point].

Q: For Cc1sc2nc(COC(=O)c3cccc(OC(F)F)c3)[nH]c(=O)c2c1C, which Potency is on record?
A: Its Potency is inconclusive: 0.82 µM [inhibitor, full curve, poor fit].

Q: With CCn1c2ccccc2c2cc(NC(=O)c3cc(OC)cc(OC)c3)ccc21 as the compound, how does the Potency read?
A: The Potency was inconclusive: 0.82 µM [inhibitor, full curve, poor fit].

Q: Which Potency does the source give for O=C1NC2(C=Cc3c(ccc4ccccc34)O2)Oc2ccccc21 (stereo not given) here?
A: Its Potency is inconclusive: 18.4 µM [activator, partial curve].

Q: With NC1=NC(=O)/C(=C\c2cccnc2)S1 as the compound, how does the Potency read?
A: The Potency was inconclusive: 8.2 µM [inhibitor, partial curve, poor fit].

Q: For CC[C@]1(C(=O)OC)[C@H]2C(=O)N(C)C(=O)[C@H]2[C@H]2CN=C(SCc3ccc(Cl)cc3)N21, which Potency is on record?
A: Its Potency is “inactive”.

Q: With Cc1ccc(NC(=S)Nc2ccc(F)cc2)c(C)c1 as the compound, how does the Potency read?
A: The Potency was “inactive”.

Q: For Cc1nn(Cc2ccc(C(=O)NN)o2)c(C)c1Cl, which Potency is on record?
A: The Potency was inconclusive: 20.6 µM [inhibitor, single point].

Q: With C[C@H](NC(=O)[C@@H]1Cc2ccccc2CN1)C(=O)Nc1ccc2c(c1)OCCO2 as the compound, how does the Potency read?
A: Its Potency is inconclusive: 29.1 µM [activator, single point].

Q: Which Potency does the source give for O=C(NCCC(=O)N1CCN(c2cccc(Cl)c2)CC1)c1ccc(Br)cc1 here?
A: The Potency was inconclusive: 29.1 µM [inhibitor, single point].

Q: Which Potency does the source give for Cc1ccc(S(=O)(=O)N2C(=O)CCC2C(=O)O/N=C(\N)c2ccc([N+](=O)[O-])cc2)cc1 (stereo not given) here?
A: Its Potency is “inactive”.

Q: With O=C(O)c1cccc(Cn2c(Cl)c(/C=N/NC(=O)c3cccc(O)c3)sc2=O)c1 as the compound, how does the Potency read?
A: Its Potency is “inactive”.

Q: With CCC(=O)Nc1ccc(S(=O)(=O)N2CCOCC2)cc1 as the compound, how does the Potency read?
A: Its Potency is “inactive”.

Q: With Cc1cc(Cl)ccc1NC(=S)Nc1ccccn1 as the compound, how does the Potency read?
A: The Potency was inconclusive: 5.8 µM [activator, partial curve].

Q: Which Potency does the source give for O=C(N/N=C/C=C/c1ccccc1)c1n[nH]c2c1CCC2 here?
A: Its Potency is inconclusive: 18.4 µM [activator, partial curve].

Q: For COc1cc2cc(CN(Cc3cccnc3)C(=O)Nc3ccccc3)c(=O)[nH]c2cc1OC, which Potency is on record?
A: Its Potency is active: 7.3 µM.

Q: With Cc1cc(C(=O)N/N=C/c2cc([N+](=O)[O-])cc(C)c2O)n[nH]1 as the compound, how does the Potency read?
A: The Potency was inconclusive: 14.6 µM [inhibitor, partial curve, poor fit].

Q: With O=C(/C=C/Nc1ccc(Br)cc1F)c1ccco1 as the compound, how does the Potency read?
A: The Potency was inconclusive: 0.73 µM [activator, partial curve].

Q: With CCOC(=O)c1[nH]c2ccc(Cl)cc2c1NC(=O)/C=C/c1ccc2c(c1)OCO2 as the compound, how does the Potency read?
A: Its Potency is “inactive”.

Q: For O=C(Nc1nc2ccccc2c(=O)s1)c1ccco1, which Potency is on record?
A: The Potency was “inactive”.

Q: Which Potency does the source give for O=C(COc1ccc([N+](=O)[O-])cc1)Nc1ccncc1 here?
A: Its Potency is “inactive”.

Q: For O=c1c2ccccc2nc(SCc2cc(=O)n3ccsc3n2)n1CCCO, which Potency is on record?
A: Its Potency is inconclusive: 18.4 µM [inhibitor, single point].

Q: For Cc1occc1C(=O)N/N=C/c1ccc(-c2ccccc2)cc1, which Potency is on record?
A: The Potency was inconclusive: 1.3 µM [activator, full curve].

Q: With Cn1c(=O)c(C(=O)NNC(=O)c2ccccc2F)c(O)c2ccccc21 as the compound, how does the Potency read?
A: The Potency was “inactive”.

Q: Which Potency does the source give for CCN(CC)S(=O)(=O)c1ccc(C(=O)NCCN2C(=O)S/C(=C\c3cccnc3)C2=O)cc1 here?
A: Its Potency is active: 14.6 µM.

Q: For O=C(OCc1cc(=O)n2ccsc2n1)c1ccc(O)cc1O, which Potency is on record?
A: Its Potency is inconclusive: 20.6 µM [activator, partial curve].

Q: With Cc1[nH]c2c(C)cccc2c1CCNC(=O)c1ccc2c(c1[N+](=O)[O-])C(=O)c1ccccc1C2=O as the compound, how does the Potency read?
A: The Potency was inconclusive: 29.1 µM [inhibitor, single point].

Q: Which Potency does the source give for CN1CCN(C(=S)NC(=O)/C=C/c2cccs2)CC1 here?
A: The Potency was inconclusive: 11.6 µM [activator, partial curve, poor fit].

Q: Which Potency does the source give for COc1cccc(-c2cc3nc(-c4ccccc4)cc(N4CCC5(CC4)OCCO5)n3n2)c1 here?
A: The Potency was inconclusive: 13 µM [inhibitor, partial curve].

Q: With O=C(c1ccoc1)N1CCC2(CC1)Oc1ccc(F)cc1C(=O)C21CC(c2ccc(Cl)cc2)=NO1 (stereo not given) as the compound, how does the Potency read?
A: Its Potency is inconclusive: 29.1 µM [inhibitor, single point].

Q: With CC(C)(C)OC(=O)N1CCCC(C(=O)Nc2ccc(C(=O)N3CCCCC3)cc2)C1 (stereo not given) as the compound, how does the Potency read?
A: Its Potency is inconclusive: 23.1 µM [inhibitor, partial curve, poor fit].

Q: With Cc1noc(NS(=O)(=O)c2ccc(NC(=O)COc3ccc(C#N)cc3)cc2)c1C as the compound, how does the Potency read?
A: Its Potency is inconclusive: 20.6 µM [activator, single point].

Q: With Cc1ccc2c(c1)N(CC(=O)N1CCC(C)CC1)C(=O)c1cccnc1O2 as the compound, how does the Potency read?
A: The Potency was inconclusive: 6.51 µM [activator, single point].
